Assay [1] has as its target T1, OsSHMT fused with a YFP fragment for BiFC (rice (Oryza sativa subsp. indica, Dular)) (UniProt Q10D68).
T1 sequence: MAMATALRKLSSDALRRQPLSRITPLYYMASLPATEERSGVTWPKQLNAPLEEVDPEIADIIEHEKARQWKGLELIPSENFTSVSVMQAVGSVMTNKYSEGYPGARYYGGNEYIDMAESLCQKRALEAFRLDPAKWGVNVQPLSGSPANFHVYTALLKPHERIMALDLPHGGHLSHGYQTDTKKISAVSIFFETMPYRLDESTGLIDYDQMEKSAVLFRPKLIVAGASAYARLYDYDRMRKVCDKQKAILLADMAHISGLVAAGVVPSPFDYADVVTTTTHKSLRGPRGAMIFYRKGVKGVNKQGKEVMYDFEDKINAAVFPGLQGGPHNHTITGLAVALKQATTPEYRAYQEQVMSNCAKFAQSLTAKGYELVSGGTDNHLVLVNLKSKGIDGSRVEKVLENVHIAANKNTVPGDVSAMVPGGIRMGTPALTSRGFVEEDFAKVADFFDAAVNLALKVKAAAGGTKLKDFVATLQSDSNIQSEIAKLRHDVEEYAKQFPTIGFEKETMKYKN
Put plainly: split reporter; BiFC: YFPn and YFPc fusions co-expressed by transient transformation in leaves of Nicotiana benthamiana; YFP fluorescence by laser confocal microscopy, 488-nm excitation.

Assay [2] concerns the target ATP synthase subunit β from rice, fused with a YFP fragment for BiFC (rice (Oryza sativa subsp. indica, Dular)). The assay is described as above.

These are yes or no findings as the source states them, for the method shown. In cells and extracts the contact can be indirect. Binding calls can cover weak binding; strength is not graded here. Tags and fused reporters may be left off the sequences shown.

Take “ATP synthase subunit α from rice, fused with a YFP fragment for BiFC”: the binding result in assay [1] is reported as “binds”.

On to “ATP synthase subunit β from rice, fused with a YFP fragment for BiFC”, for which the binding result in assay [1] is recorded as “binds”.

In the case of “ascorbate peroxidase (APX) from rice, fused with a YFP fragment for BiFC (enzyme)”, in assay [1], the binding result is reported as “binds”.

B1: OsNIP2;1 (Lsi1-encoded nodulin 26-like intrinsic protein) fused with the N-terminal domain of YFP (protein, UniProt Q6Z2T3 1-298)
chain: MASNNSRTNSRANYSNEIHDLSTVQNGTMPTMYYGEKAIADFFPPHLLKKVVSEVVATFLLVFMTCGAAGISGSDLSRISQLGQSIAGGLIVTVMIYAVGHISGAHMNPAVTLAFAVFRHFPWIQVPFYWAAQFTGAICASFVLKAVIHPVDVIGTTTPVGPHWHSLVVEVIVTFNMMFVTLAVATDTRAVGELAGLAVGSAVCITSIFAGAISGGSMNPARTLGPALASNKFDGLWIYFLGPVMGTLSGAWTYTFIRFEDTPKEGSSQKLSSFKLRRLRSQQSIAADDVDEMENIQV
On to B1, for which, in assay [2], the binding entry was “binds”.

For the origin of these results see article PMC7249644.
